From PubChem BioAssay AID2685 (National Center for Advancing Translational Sciences (NCATS), 2010) come the findings set out here.

The nature of this test: qHTS Assay for Lipid Storage Modulators in Drosophila S3 Cells.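 As to cell number change: cells counted by Cell Tracker Red CMTPX staining in the red channel.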 The note with it: BODIPY lipid droplet fluorescence, 18-24 h; for cell number change: measured here: cell count max response, cells fed with added oleic acid. The method, boiled down:
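Laser-scanning cytometry quantifies lipid droplet accumulation (500–530 nm total intensity; droplet/cell object ratio) in oleic acid-fed (400 uM added) Drosophila S3 cells treated with a concentration series. 20 uM Triacsin C defined 100% inhibition.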
(In general: In qHTS, concentration-response curves come from the screen itself.)

Where [1] appears, read: measured here: lipid fluorescence (Fed channel) AC50, cells fed with added oleic acid.
Where [2] appears, read: measured here: cell number channel AC50, cells fed with added oleic acid.

This is one part of the list. Further columns of the screen follow, without active or inactive calls. Compounds called inactive in the main read-out are mostly missing here. Words in brackets tell the shape of the fitted curve; partial curves, single points and poor fits give uncertain potencies.

In the case of `CC(C)NC(=S)N/N=C/c1ccc2c(c1)OCCO2`, the cell number change is 16.9%. In addition, the AC50 under setting [1] is 1.16 µM [rising, partial curve].

Regarding `Cc1ccc2nc(SCC(=O)Nc3cc(C(C)(C)C)nn3-c3ccccc3)[nH]c2c1`, the cell number change is -39.6%. The AC50 under setting [2] is 18.4 µM [falling, partial curve]. Besides, under setting [1], the AC50 is 20.6 µM [falling, partial curve].

For `CCCN(CCC)CC(O)COc1ccc([N+](=O)[O-])cc1` (stereo not drawn), the cell number change was -20.7%. Also, the AC50 under setting [1] is 2.91 µM [falling, partial curve].

In the case of `COCc1nnc(NS(=O)(=O)c2c(C)cc(C)cc2C)s1`, the concentration at half-maximal activity (AC50) under setting [1] is 29.1 µM [falling, single point].

As for `O=C(CN1C(=O)NC2(CCCc3ccccc32)C1=O)NC1CCCCC1` (stereo not drawn), the cell number change is -36%. Also, the AC50 under setting [1] is 25.9 µM [falling, partial curve, poor fit].

For `Cc1nc(SCc2ccccc2)c2oc3ccccc3c2n1`, the cell number change stood at 21.6%. The AC50 under setting [1] is 2.06 µM [rising, partial curve, poor fit].

With `Cc1cccc(NC(=S)N2CCN(c3ccccc3)CC2)c1`, the cell number change turned out to be 14.9%. Besides, the AC50 under setting [1] was 32.6 µM [rising, single point].

For `O=C(O)CC/C(=N/NC(=O)CNC(=O)Cc1ccccc1)c1ccccc1`, the cell number change was determined as 3.52%.

Take `CCCS(=O)(=O)N1CCN(C(=O)c2cccs2)CC1`: the cell number change is -96.7%. In addition, the AC50 under setting [2] is 20.6 µM [falling, partial curve]. Also, the AC50 under setting [1] is 2.06 µM [falling, partial curve].

Consider `CCCN(CCC)S(=O)(=O)c1ccc(C(=O)Nc2ccc(OCC(=O)N3CCOCC3)cc2)cc1`, for which the cell number change amounted to 20.1%. The half-maximal activity concentration (AC50) under setting [2] was 0.082 µM [rising, full curve, poor fit].

Regarding `COc1ccc(OC)c2[nH]c(=O)c(CCNC(C)=O)cc12`, the cell number change was -82.2%. Also, under setting [2], the AC50 is 1.46 µM [falling, partial curve]. Further, the AC50 under setting [1] is 20.6 µM [falling, partial curve].

As for `COc1cccc2[nH]c(C(=O)NN)c(N)c12`, the cell number change was -17.3%. Besides, the AC50 under setting [1] is 29.1 µM [falling, single point].

Regarding `COc1ccc(Cl)cc1NS(=O)(=O)c1cccc(C(=O)NCC(C)(C)N2CCOCC2)c1`, the cell number change is -2.06%. Also, the AC50 under setting [1] was 1.46 µM [rising, partial curve, poor fit].

`O=C(COC(=O)/C=C/c1ccc(F)cc1)Nc1cccc(S(=O)(=O)N2CCCC2)c1`: the cell number change is 1.94%. In addition, the AC50 under setting [2] is 1.16 µM [rising, single point].

For `O=C1N=C(N2C=CC(=C3C=CNC=C3)C=C2)/C(=C/N=NC(=O)c2ccccc2)S1`, the cell number change is -0.451%. Under setting [1], the AC50 is 0.58 µM [falling, single point].

`Cc1ccc(-c2nnn(CC(=O)N(c3ccccc3F)C(C(=O)NC3CCCC3)c3ccncc3)n2)o1` (stereo not drawn): the cell number change was -15.8%. Further, under setting [1], the AC50 was 4.47 µM [falling, partial curve, poor fit].

`COc1ccc(Cl)cc1C(=O)NC1=NCCS1`: the cell number change is -5.61%.

Consider `O=C(c1ccco1)N1CCC(c2nc3c(nnn3Cc3ccccc3Cl)c(=O)[nH]2)CC1`, for which the cell number change was -7.14%.

Consider `O=c1[nH]c(SCc2ccc(Cl)cc2)nc2ccsc12`, for which the cell number change was 39.9%. Also, under setting [2], the AC50 was 32.6 µM [rising, partial curve].

For `Cc1ccc(C)c(OCC(=O)NNC(=O)c2ccc(=O)[nH]c2)c1`, the cell number change was -14.7%. In addition, the AC50 under setting [2] was 0.517 µM [falling, full curve]. Also, the AC50 under setting [1] is 0.517 µM [falling, full curve, poor fit].

Turning to `C#CCCc1cscc1/C=[N+](\[O-])c1ccc(C(=O)OCC)cc1`, the cell number change was 11.2%. For the same compound, the concentration at half-maximal activity (AC50) under setting [2] is 0.00517 µM [falling, full curve, poor fit].

In the case of `CCC(=O)c1ccc(OCC(=O)N(CC)CC2COc3ccccc3O2)cc1` (stereo not drawn), the AC50 runs as follows: under setting [2], 6.51 µM [rising, single point]; under setting [1], 0.58 µM [rising, single point].

Turning to `COc1ccc(OC)c(-c2csc(NC(=O)COC(=O)C3(C)CC3(Cl)Cl)n2)c1` (stereo not drawn), the cell number change came to 6.13%. Besides, the AC50 under setting [1] was 0.651 µM [falling, full curve, poor fit].

For `Cc1cc(C(=O)COC(=O)CC2Sc3ccccc3NC2=O)c(C)n1-c1cccc(C(F)(F)F)c1` (stereo not drawn), the cell number change is -5.65%. In addition, the AC50 under setting [1] was 29.1 µM [falling, single point].

In the case of `COc1c(O)ccc2c1CN1CCc3cc4c(cc3C1C2)OCO4` (stereo not drawn), the cell number change stood at 8.6%. In addition, the AC50 under setting [1] is 13 µM [rising, partial curve, poor fit].

As for `Nc1cccc(NC(=O)c2cccs2)c1`, the cell number change is -1.62%. For the same compound, the AC50 under setting [1] is 3.26 µM [rising, single point].

In the case of `O=C(CN1C(=O)C(=O)N(Cc2ccco2)C1=O)NC1CCCCC1`, the cell number change was -67.9%. Under setting [2], the AC50 was 1.16 µM [falling, partial curve].

With `CN(C(=O)COC(=O)c1ccc(CN2CCCC2=O)cc1)c1ccccc1`, the cell number change was determined as 0.388%. The AC50 under setting [1] was 0.0082 µM [rising, full curve, poor fit].

With `COc1ccc(C(=O)N2CCCCC2)cc1S(=O)(=O)Nc1ccccc1`, the cell number change was -0.287%.

In the case of `CN(C)/C=C/C(=O)c1cnc(-c2ccc(Cl)cc2)s1`, the cell number change came to 5.14%. Further, under setting [1], the AC50 is 29.1 µM [rising, partial curve, poor fit].

With `COc1ccccc1Nc1ncc(C(=O)N2CCN(Cc3ccc(OC)c(OC)c3OC)CC2)c2ccccc12`, the cell number change came out at 6.41%. Further, under setting [1], the AC50 was 29.1 µM [falling, single point].

For `CC(=O)N1CCN(S(=O)(=O)c2cccc(C(=O)OCC(=O)N(CCC#N)c3ccc(F)cc3)c2)CC1`, the cell number change is -36.5%. In addition, the AC50 under setting [2] is 29.1 µM [falling, single point]. The AC50 under setting [1] was 0.651 µM [falling, single point].

`Cc1n[nH]c(=O)c2c(NC(=O)CSc3nc4ccccc4c(=O)n3CCCO)oc(C)c12`: the cell number change is -15.8%. The AC50 under setting [1] was 29.1 µM [rising, single point].

`Cc1ccc(CNC(=O)C2CCCCN2S(=O)(=O)c2ccccc2)cc1` (stereo not drawn): the cell number change was -2.17%.

With `Cc1nc(SCC(=O)Nc2nc3ccccc3s2)n[nH]1`, the cell number change was -4.05%.

On to `Cc1cc(C(C)(C)C)ccc1OCCCCN1CCCC1`, for which the cell number change was -27.4%. Further, the AC50 under setting [1] is 29.1 µM [falling, single point].

As to `Cc1cc(F)ccc1NS(=O)(=O)c1c(C(=O)N2CCOCC2)c(C)n(C)c1C`, the cell number change was 14.1%.

For `COc1ccc(C2=NS(=O)(=O)N(C)C(C(=O)N3CCCCC3C)=C2)cc1` (stereo not drawn), the cell number change was -27.1%. Also, the AC50 under setting [1] was 0.00517 µM [falling, full curve, poor fit].

As to `COc1ccc(F)cc1COc1nc(C)nc2ccccc12`, the cell number change worked out at 5.42%.

In the case of `Fc1ccccc1NC(=S)NC1CCCC1`, the cell number change is -3.85%. Further, the AC50 under setting [1] is 29.1 µM [falling, single point].

`Cc1cc(C(=O)OCC(=O)N(CC(C)C)c2c(N)n(Cc3ccccc3)c(=O)[nH]c2=O)c2ccccc2n1`: the cell number change was -17.3%. For the same compound, under setting [1], the AC50 was 2.06 µM [rising, single point].

Consider `CCn1c(SCc2ccc(C(=O)Nc3nccs3)cc2)nnc1-c1ccc(N)cc1`, for which the cell number change is -12.5%. Besides, the AC50 under setting [1] was 0.651 µM [rising, single point].

Take `CC1CCN(C(=O)c2ccc(Br)c(S(=O)(=O)N3CCOCC3)c2)CC1`: the cell number change was 23.3%.

Take `Cc1nnc2c(SC(C)C)nc3ccccc3n12`: the cell number change is -33%. The AC50 under setting [2] was 6.51 µM [falling, full curve, poor fit]. The AC50 under setting [1] was 0.58 µM [falling, single point].

Take `COc1ccc(C(=O)Nc2c3c(nn2-c2ccc(Cl)cc2)CS(=O)(=O)C3)cc1`: the cell number change was -8.06%. For the same compound, under setting [1], the AC50 was 29.1 µM [falling, single point].

On to `COC(=O)c1nc2cc3c(cc2c(C)c1C(=O)OC)OCO3`, for which the cell number change is -11.2%. Besides, under setting [1], the AC50 is 0.184 µM [rising, partial curve, poor fit].

Turning to `CCC(C(=O)OC)n1cnc2c(nnn2-c2ccccc2)c1=O` (stereo not drawn), the cell number change stood at 2.88%.

As for `COc1ccc(C(=O)N(c2ccccn2)C2CCCCC2)c(OC)c1`, the cell number change was determined as 54.1%.

For `CCCCn1c(N)c(N(CC(C)C)C(=O)C2CCN(S(=O)(=O)c3ccc(Cl)cc3)CC2)c(=O)[nH]c1=O`, the cell number change is -12.5%.

With `O=C(Nc1ccc(Nc2ccccc2)cc1)C(Cl)(Cl)Cl`, the cell number change is -3.26%. The AC50 under setting [2] is 4.11 µM [falling, partial curve, poor fit]. The AC50 under setting [1] is 29.1 µM [falling, single point].

As for `Cc1ccc(NC(=O)C2CCCN(S(=O)(=O)c3ccc4[nH]c(=O)ccc4c3)C2)cc1C` (stereo not drawn), the cell number change was 41.2%. Further, the AC50 under setting [2] was 32.6 µM [rising, single point].

With `CC1CC(C)(C)NC(=S)N1CC(=O)NCc1ccc2c(c1)OCO2` (stereo not drawn), the cell number change is -61.4%. Moreover, the AC50 under setting [2] is 5.8 µM [falling, partial curve, poor fit]. Moreover, the AC50 under setting [1] was 0.731 µM [falling, single point].

In the case of `NC(=O)CCN1CCC(c2nc3ccccc3s2)CC1`, the cell number change amounted to 0.403%. The AC50 under setting [1] was 29.1 µM [rising, single point].

With `CCNC1=C(Cl)C(=O)c2ccccc2C1=O`, the cell number change is -51.2%. Further, the AC50 under setting [2] was 32.6 µM [falling, single point]. Also, the AC50 under setting [1] was 0.58 µM [rising, full curve, poor fit].

With `CC(C)=CCC(C)(C)C1OCCN1C(=O)c1ccccc1` (stereo not drawn), the cell number change is -25.2%. Under setting [1], the half-maximal activity concentration (AC50) was 0.206 µM [falling, partial curve].

For `COc1ccccc1-n1c(=O)[nH]c2c(C(N)=O)nc(CC(C)C)nc21`, the cell number change was 9.34%. Under setting [1], the AC50 is 1.16 µM [falling, partial curve].

`Cc1cccc(NC(=O)c2ccc(S(=O)(=O)NCc3cccnc3)cc2)c1C`: the cell number change was -26.9%.

For `O=C(Nc1nc(-c2ccccn2)cs1)c1ccc(Br)s1`, the cell number change is -8.84%. Under setting [1], the concentration at half-maximal activity (AC50) is 0.731 µM [rising, full curve].

`CC1(C(=O)O)CC(C)(C(=O)O)CC(C)(C(=O)O)C1` (stereo not drawn): the cell number change stood at 3.35%. Besides, under setting [1], the AC50 was 3.66 µM [rising, partial curve].

Turning to `COc1ccc(OCC(=O)N2CCN(S(=O)(=O)c3ccccc3[N+](=O)[O-])CC2)cc1`, the cell number change was 18.3%.

For `COc1ccc(OC)c(-n2nnnc2SCC(=O)O)c1`, the cell number change is -50%. In addition, the AC50 under setting [2] was 7.31 µM [falling, partial curve].

Consider `CCC(=O)Nc1sc2c(c1C(=O)OC)CCN(Cc1ccccc1)C2`, for which the cell number change is -9.22%. For the same compound, the AC50 under setting [1] was 32.6 µM [falling, single point].

What is called AC50 is the concentration giving half of the maximal activity seen. A higher AC50 goes with weaker potency.
